From patent US20110110852A1
Results are given in words; binding and its absence hold for the method and conditions named. In cells and extracts the contact can be indirect. Some binding calls cover weakened binding; strength is not graded here.

Amino acid sequences for entries named in this document (tags omitted). Residues count along the entry.
UniProt O14763, residues 56-440: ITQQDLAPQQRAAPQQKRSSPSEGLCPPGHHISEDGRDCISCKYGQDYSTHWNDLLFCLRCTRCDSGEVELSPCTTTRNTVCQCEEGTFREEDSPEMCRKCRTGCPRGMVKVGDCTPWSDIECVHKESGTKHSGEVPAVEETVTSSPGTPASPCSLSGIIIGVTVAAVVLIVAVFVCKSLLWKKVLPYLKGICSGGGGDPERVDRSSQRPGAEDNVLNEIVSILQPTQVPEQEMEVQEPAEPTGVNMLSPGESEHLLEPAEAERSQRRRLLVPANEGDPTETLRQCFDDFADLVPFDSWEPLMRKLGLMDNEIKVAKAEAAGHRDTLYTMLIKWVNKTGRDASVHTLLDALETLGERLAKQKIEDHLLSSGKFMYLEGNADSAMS
UniProt Q13158: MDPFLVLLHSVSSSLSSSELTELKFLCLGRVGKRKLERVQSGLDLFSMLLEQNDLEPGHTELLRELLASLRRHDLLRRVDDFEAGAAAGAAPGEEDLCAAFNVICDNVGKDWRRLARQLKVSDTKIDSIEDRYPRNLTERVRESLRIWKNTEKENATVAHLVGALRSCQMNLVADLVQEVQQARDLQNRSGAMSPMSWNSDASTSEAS

Molecular target: DR5 on cells (UniProt O14763)
Test: DISC analysis on BJAB cells, co-purification with antibody-DR5 complexes, Western blot

Substance: FADD (from UniProt Q13158 1-208)
- binding: binds
